Results reported in patent US11044910B2, “Mesoionic insecticides” (priority 2017, dated 2021).
Some entries share one result that the patent states for a list of compounds.

Test system: diamondback moth (Plutella xylostella (L.))
Test: Test A: control of diamondback moth, foliar spray on mustard plant
Assay type: in vivo
Conditions: neonate larvae, assessed after 6 days, very good to excellent control

Compound	control efficacy: feeding damage (40% or less feeding damage and/or 100% mortality) (sprayed at 50 ppm) [%]	control efficacy: feeding damage (40% or less feeding damage and/or 100% mortality) (sprayed at 250 ppm) [%]
COc1cc(C(=O)c2c([O-])n3ccccc3[n+]2Cc2cnc(Cl)s2)ccc1F [Compound 49]	≤ 40	≤ 40
O=C(c1c([O-])n2ccccc2[n+]1Cc1cnc(Cl)s1)C1CCCCC1 [Compound 107]	–	≤ 40
Cn1ncc(C(=O)c2c([O-])n3ccccc3[n+]2Cc2cnc(Cl)s2)c1C(F)(F)F [Compound 97]	–	≤ 40
COc1cc(OCCc2ccccc2)cc(C(=O)c2c([O-])n3ccccc3[n+]2Cc2cnc(Cl)s2)c1 [Compound 153]	–	≤ 40
O=C(c1ccc(F)cc1Cl)c1c([O-])n2ccccc2[n+]1Cc1cnc(Cl)s1 [Compound 69]	≤ 40	≤ 40
O=C(c1ccc2c(c1)OCCO2)c1c([O-])n2ccccc2[n+]1Cc1cnc(Cl)s1 [Compound 142]	–	≤ 40
CCOC(=O)C(=O)c1c([O-])n2ccccc2[n+]1Cc1cnc(Cl)s1 [Compound 111]	≤ 40	≤ 40
O=C(c1c(Cl)cc(Cl)cc1Cl)c1c([O-])n2ccccc2[n+]1Cc1cnc(Cl)s1 [Compound 79]	≤ 40	≤ 40
COc1cc(C(=O)c2c([O-])n3ccccc3[n+]2Cc2cnc(Cl)s2)ccn1 [Compound 16]	≤ 40	≤ 40
O=C(Cc1cccc(C(F)(F)F)c1)c1c([O-])n2ccccc2[n+]1Cc1cnc(Cl)s1 [Compound 13]	–	≤ 40
O=C(Cc1ccc(C(F)(F)F)cc1)c1c([O-])n2ccccc2[n+]1Cc1cnc(Cl)s1 [Compound 17]	–	≤ 40
COCCOc1cc(OC)cc(C(=O)c2c([O-])n3ccccc3[n+]2Cc2cnc(Cl)s2)c1 [Compound 155]	–	≤ 40
O=C(c1cccc(Cl)n1)c1c([O-])n2ccccc2[n+]1Cc1cnc(Cl)s1 [Compound 30]	–	≤ 40
O=C(c1ccsc1Cl)c1c([O-])n2ccccc2[n+]1Cc1cnc(Cl)s1 [Compound 38]	–	≤ 40
O=C(c1cc(Br)c(F)cc1F)c1c([O-])n2ccccc2[n+]1Cc1cnc(Cl)s1 [Compound 125]	≤ 40	≤ 40
O=C(C(=O)c1c([O-])n2ccccc2[n+]1Cc1cnc(Cl)s1)c1ccccc1 [Compound 117]	≤ 40	≤ 40
O=C(c1ccon1)c1c([O-])n2ccccc2[n+]1Cc1cnc(Cl)s1 [Compound 108]	≤ 40	≤ 40
O=C(Oc1ccc(Cl)cc1)c1c([O-])n2ccccc2[n+]1Cc1cnc(Cl)s1 [Compound 112]	–	≤ 40
COCCOc1cccc(C(=O)c2c([O-])n3ccccc3[n+]2Cc2cnc(Cl)s2)c1 [Compound 64]	≤ 40	≤ 40
O=C(c1c([O-])n2ccccc2[n+]1Cc1cnc(Cl)s1)C1CCC1 [Compound 83]	≤ 40	≤ 40
O=C(COc1ccccc1)c1c([O-])n2ccccc2[n+]1Cc1cnc(Cl)s1 [Compound 4]	≤ 40	≤ 40
